Laboratory results from publication doi:10.1101/2022.10.06.511211.
No constants are given. Whether binding was seen depends on the method and setting. In cells and extracts the contact can be indirect. Here binding means that the protein was enriched with, or labelled near, the bait; the list need not be complete.

By UniProt entry, the sequences of proteins in these tests, tags left out.
UniProt B1AWN6, whole entry: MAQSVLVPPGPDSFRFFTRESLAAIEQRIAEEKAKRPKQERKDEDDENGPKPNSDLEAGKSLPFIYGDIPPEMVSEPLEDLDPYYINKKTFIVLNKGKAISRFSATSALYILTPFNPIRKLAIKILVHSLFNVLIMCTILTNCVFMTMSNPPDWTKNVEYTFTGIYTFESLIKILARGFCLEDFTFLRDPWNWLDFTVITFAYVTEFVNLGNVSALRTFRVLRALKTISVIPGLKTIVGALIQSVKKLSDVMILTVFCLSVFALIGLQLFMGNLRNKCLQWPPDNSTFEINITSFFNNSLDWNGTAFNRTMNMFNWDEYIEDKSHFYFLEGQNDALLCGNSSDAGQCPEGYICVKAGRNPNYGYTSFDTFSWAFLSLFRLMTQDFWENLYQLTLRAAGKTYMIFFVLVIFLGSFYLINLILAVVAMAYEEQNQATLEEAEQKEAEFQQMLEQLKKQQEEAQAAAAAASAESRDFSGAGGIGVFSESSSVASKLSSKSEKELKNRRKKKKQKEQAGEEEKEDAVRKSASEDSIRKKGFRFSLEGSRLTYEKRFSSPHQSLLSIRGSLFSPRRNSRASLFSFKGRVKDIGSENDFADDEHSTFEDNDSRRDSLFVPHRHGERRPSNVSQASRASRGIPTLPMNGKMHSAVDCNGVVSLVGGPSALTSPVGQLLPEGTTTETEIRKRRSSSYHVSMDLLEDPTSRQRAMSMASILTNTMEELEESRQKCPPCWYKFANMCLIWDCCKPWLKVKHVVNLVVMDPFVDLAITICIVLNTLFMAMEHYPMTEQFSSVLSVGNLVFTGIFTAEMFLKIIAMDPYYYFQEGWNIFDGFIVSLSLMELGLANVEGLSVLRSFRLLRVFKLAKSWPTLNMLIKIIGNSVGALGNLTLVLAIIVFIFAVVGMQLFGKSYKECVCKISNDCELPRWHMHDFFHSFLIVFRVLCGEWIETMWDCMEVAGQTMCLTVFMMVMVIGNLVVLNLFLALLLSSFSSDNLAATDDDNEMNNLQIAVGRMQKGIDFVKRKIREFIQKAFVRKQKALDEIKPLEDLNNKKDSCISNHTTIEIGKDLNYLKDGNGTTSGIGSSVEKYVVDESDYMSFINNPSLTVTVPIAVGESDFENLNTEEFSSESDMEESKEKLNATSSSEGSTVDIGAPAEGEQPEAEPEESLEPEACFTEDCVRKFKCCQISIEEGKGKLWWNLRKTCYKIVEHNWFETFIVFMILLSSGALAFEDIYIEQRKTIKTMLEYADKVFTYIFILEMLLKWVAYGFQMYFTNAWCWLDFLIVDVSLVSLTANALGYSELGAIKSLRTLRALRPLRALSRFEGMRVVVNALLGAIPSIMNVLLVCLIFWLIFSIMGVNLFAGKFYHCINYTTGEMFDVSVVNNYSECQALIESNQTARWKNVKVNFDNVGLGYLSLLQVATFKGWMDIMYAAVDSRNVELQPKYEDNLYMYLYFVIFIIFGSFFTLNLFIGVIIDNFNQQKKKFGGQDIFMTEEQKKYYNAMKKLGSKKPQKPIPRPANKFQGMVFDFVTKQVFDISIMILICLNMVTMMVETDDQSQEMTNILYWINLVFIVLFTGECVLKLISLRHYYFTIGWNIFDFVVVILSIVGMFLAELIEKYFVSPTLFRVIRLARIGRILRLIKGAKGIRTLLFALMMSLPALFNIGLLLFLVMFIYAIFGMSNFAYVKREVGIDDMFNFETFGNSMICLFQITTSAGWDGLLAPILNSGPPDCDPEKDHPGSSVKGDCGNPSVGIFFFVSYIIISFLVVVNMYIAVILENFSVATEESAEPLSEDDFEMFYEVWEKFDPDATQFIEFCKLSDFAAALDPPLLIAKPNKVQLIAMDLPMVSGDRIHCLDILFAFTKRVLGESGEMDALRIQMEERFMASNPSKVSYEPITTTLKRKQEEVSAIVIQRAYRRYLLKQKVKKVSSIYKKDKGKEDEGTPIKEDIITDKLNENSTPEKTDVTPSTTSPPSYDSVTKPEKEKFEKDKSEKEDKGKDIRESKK

Legend:
[1] = biological target: Scn2a (mouse, endogenous, untagged) (mouse (endogenous in forebrain)) (UniProt B1AWN6); test: affinity purification with mass spectrometry
[2] = biological target: Scn2a (mouse, endogenous, TurboID-HA knock-in) (mouse (endogenous in forebrain)) (UniProt B1AWN6); test: proximity labelling

binding [1]: binds | binding [2]: binds
B1: Fgf12 (protein, UniProt P61329 1-243)
chain: MAAAIASSLIRQKRQARESNSDRVSASKRRSSPSKDGRSLCERHVLGVFSKVRFCSGRKRPVRRRPEPQLKGIVTRLFSQQGYFLQMHPDGTIDGTKDENSDYTLFNLIPVGLRVVAIQGVKASLYVAMNGEGYLYSSDVFTPECKFKESVFENYYVIYSSTLYRQQESGRAWFLGLNKEGQIMKGNRVKKTKPSSHFVPKPIEVCMYREPSLHEIGEKQGRSRKSSGTPTMNGGKVVNQDST
